From article PMC7819943, “Rice protein-binding microarrays: a tool to detect cis-acting elements near promoter regions in rice” come the findings set out here.

Some of the results follow.

This experiment deals with T1, OsSMF1 (Oryza sativa, UniProt Q6ZLB0 1-436).
T1 sequence: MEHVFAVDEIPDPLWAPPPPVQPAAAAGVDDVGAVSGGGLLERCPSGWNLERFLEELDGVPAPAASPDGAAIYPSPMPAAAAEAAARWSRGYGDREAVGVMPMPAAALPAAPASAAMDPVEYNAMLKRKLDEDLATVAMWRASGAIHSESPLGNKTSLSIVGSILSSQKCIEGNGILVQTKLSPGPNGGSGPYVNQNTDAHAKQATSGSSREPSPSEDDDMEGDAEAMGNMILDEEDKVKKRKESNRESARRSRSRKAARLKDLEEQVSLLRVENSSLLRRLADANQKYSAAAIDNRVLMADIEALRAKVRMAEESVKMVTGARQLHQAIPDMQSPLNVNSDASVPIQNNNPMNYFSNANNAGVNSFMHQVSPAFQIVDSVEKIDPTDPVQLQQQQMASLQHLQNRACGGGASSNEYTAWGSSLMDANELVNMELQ
In words: protein-binding microarray (RPBM); PBS, 2% BSA, 51.3 ng/ul salmon testes DNA, 50 uM zinc acetate, 200 nM TF, 25 C, 1 h; high values mean tight binding. The conditions noted are these: protein: recombinant; tags: N-terminal polyhistidine and DsRed monomer fusion (pET32a); chain copies: 2; label: CyDye5-dUTP incorporated in the synthesized complementary strand; 3' TTTTT single-stranded linker to array surface; dsDNA, one strand shown. In short, it runs like this:
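Transcription factors were each fused at the N-terminus to a polyhistidine tag plus DsRed and expressed in E. coli BL21-CodonPlus before Ni–NTA purification. Binding to a double-stranded custom Agilent array was carried out with 200 nM protein at 25 °C for 1 h in PBS, 2% BSA, salmon testes DNA and 50 µM zinc acetate. The binding signal is per-feature fluorescence intensity, in arbitrary units, on an Axon 4000B scanner.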
Take “CGTCCCTCTGACGTAGAAGCCACTGCGTCAGAGGATCCGGCGGAGTCACCTAGTGCAG”: the binding signal is 5510 fluorescence intensity (a.u.). Take “CGGTCCTCTTCCTCCGTTCTCCTCTTCCCCTTGCCCTCCTCGGAGTCACCTAGTGCAG”: the binding signal is 28400 fluorescence intensity (a.u.). The result for “TGCGACGTGGCGACAACTCATCACGCCCCTCGTTTCCCTGCGGAGTCACCTAGTGCAG” reads 11800 fluorescence intensity (a.u.). With “TTTTGTATACTCCACGTAGACGCATATTACAAGCCAACTACGGAGTCACCTAGTGCAG” the figure was 6510 fluorescence intensity (a.u.); with “CCGCCGTAGCAGCAGCATCATCATCATCAACAACAGCAGCCGGAGTCACCTAGTGCAG”, 3410 fluorescence intensity (a.u.); with “AGGTTTGGGTTGAGATGGGAGTAGAGGGGAGTGAGGTGGACGGAGTCACCTAGTGCAG”, 6150 fluorescence intensity (a.u.). The result for “TGTTCCGTTGTCAAATGACTGTACATCTTATATTTGCCAACGGAGTCACCTAGTGCAG” reads 5510 fluorescence intensity (a.u.). As to “GAAAGGGATGGCTCACTTGAAACGTACTGCTCCCTGCCCCCGGAGTCACCTAGTGCAG”, the binding signal was 3160 fluorescence intensity (a.u.). The result for “CGCTTCCAAGGGAGGCTTAGAGCAAGTTCAATAGTATAGCCGGAGTCACCTAGTGCAG” reads 5030 fluorescence intensity (a.u.); that for “GTTTGCAGTTGCAGACACAGCCCGGCATCTTCCATCTTTTCGGAGTCACCTAGTGCAG”, 28000 fluorescence intensity (a.u.); that for “AGAGGGTTTGTGATTTTAGTCTAATAGCGGCATGTCAGTACGGAGTCACCTAGTGCAG”, 4250 fluorescence intensity (a.u.). The result for “TGATCGATCACACACGTTGCCATCACCAACTTTTCACAGACGGAGTCACCTAGTGCAG” reads 3940 fluorescence intensity (a.u.); that for “AGACATATTTTAGCATGAATCATCATCACAGGGAAGTAAGCGGAGTCACCTAGTGCAG”, 4310 fluorescence intensity (a.u.); that for “TATTCGTGATGTCATGTGACCTAAACAAATGTGTGCCATTCGGAGTCACCTAGTGCAG”, 4700 fluorescence intensity (a.u.). With “TCGGCGGATCGGTGGGTTGCGGGCTTGCACGTAGTCGAGGCGGAGTCACCTAGTGCAG” the figure was 16100 fluorescence intensity (a.u.); with “AGGTCTGATGCCTCCTACAAACTCGAAAATTCCGATAGAACGGAGTCACCTAGTGCAG”, 3180 fluorescence intensity (a.u.); with “TGCCTGCTTCGCCCACCGTCACCCTGTCAGCTTTGTGTGCCGGAGTCACCTAGTGCAG”, 5560 fluorescence intensity (a.u.). Take “ATACTAATACTCCATGGCGTGGCGTCTCATCATGTCTCGACGGAGTCACCTAGTGCAG”: the binding signal was 5590 fluorescence intensity (a.u.). The result for “GCAGGTTCCTGCATTAAACTCACGAAATAATAAAGGTAAGCGGAGTCACCTAGTGCAG” reads 15400 fluorescence intensity (a.u.); that for “GATATCATGTAGGAGTAGTAGTTGTTATGTGTGTGGGCTACGGAGTCACCTAGTGCAG”, 13000 fluorescence intensity (a.u.). The result for “ACAGCAAAACACACTCTCATCAGTGTCAGGTCTCCACACCCGGAGTCACCTAGTGCAG” reads 3710 fluorescence intensity (a.u.); that for “AAAAGTGTGTATTGCCCAAATGCCATTTTACTAAAGGGATCGGAGTCACCTAGTGCAG”, 11600 fluorescence intensity (a.u.); that for “GGAGAGGGAGACAGCCGTGGTGGCGTGGTCTCGTCTCTTCCGGAGTCACCTAGTGCAG”, 3240 fluorescence intensity (a.u.). The result for “AATTCACTCAGTCATCACACACTCAGTCATCACAAGTATACGGAGTCACCTAGTGCAG” reads 3590 fluorescence intensity (a.u.); that for “GGAAATAGTAAATAGCTACTACCAAGCCATAAGCTTACTACGGAGTCACCTAGTGCAG”, 17900 fluorescence intensity (a.u.); that for “CGTCATTAGACAAGAAACAGGGTTCCACAAACTAGTGCTACGGAGTCACCTAGTGCAG”, 13900 fluorescence intensity (a.u.). In the case of “AGCCGAGGAGCGAGGAGCTCTGCCGCATCCACCTCAATCTCGGAGTCACCTAGTGCAG”, the binding signal was 3270 fluorescence intensity (a.u.). Take “CCTCGTCAATCCTCTACATCCTGCGTTTCTTCCCCGTATACGGAGTCACCTAGTGCAG”: the binding signal was 3470 fluorescence intensity (a.u.). Regarding “GTGCAGAACATAGTACGTGTCAGGTGTCACTGTTAAACGCCGGAGTCACCTAGTGCAG”, the binding signal was 8690 fluorescence intensity (a.u.).

Turning to “CTGTCGCCTCCAGCCCCAGCGTCGGACATGGCGCCGGGAGCGGAGTCACCTAGTGCAG”, the binding signal was 3210 fluorescence intensity (a.u.). With “TTGCACATGCTGATTATTACATATTGCTACGTCCTTTTGCCGGAGTCACCTAGTGCAG” the figure was 3230 fluorescence intensity (a.u.). The result for “CCCACGTGAGTAAGCTCCTCCCTGCTGGTTTGATTCCCTTCGGAGTCACCTAGTGCAG” reads 4650 fluorescence intensity (a.u.); that for “AATTTACTCCTGCGATTTGCAAATGAGTCACGTGCACGCGCGGAGTCACCTAGTGCAG”, 11700 fluorescence intensity (a.u.).

With “AAGAATCATCTCAAGTGTAAACACGTACGCGCTGCCAACCCGGAGTCACCTAGTGCAG”, the binding signal is 5670 fluorescence intensity (a.u.). With “GCAAATAAAGAAGGAGATGACATAAGGGGTAGTAACTGGTCGGAGTCACCTAGTGCAG” the figure was 3730 fluorescence intensity (a.u.); with “GATGATACTGGCGTCAGATGAGGAACGGGTCAACGTGACACGGAGTCACCTAGTGCAG”, 4540 fluorescence intensity (a.u.). The result for “AGCTCCAGCGACCGCCCGGACTTGCCGTCCCGGACGACGGCGGAGTCACCTAGTGCAG” reads 29400 fluorescence intensity (a.u.). As for “TGAATATAAACACAACTACATTTAGCGACAGAAGAAGAACCGGAGTCACCTAGTGCAG”, the binding signal was 40600 fluorescence intensity (a.u.). The result for “TCGCGCGTGTCACTGGGTTTGGGTTGGGTCTCTCTCTCTCCGGAGTCACCTAGTGCAG” reads 3760 fluorescence intensity (a.u.); that for “AGCTCCATGATTCCGTCTATGCCGGTAGTGACACTGCAAGCGGAGTCACCTAGTGCAG”, 5160 fluorescence intensity (a.u.); that for “ATACTAGAATTTTGTGGTACCATCAGGTGCCTCCTCGAGGCGGAGTCACCTAGTGCAG”, 10200 fluorescence intensity (a.u.). As to “TCTCTCTGTCTTTACTAGTAAAATGGTAAAACTTTACCATCGGAGTCACCTAGTGCAG”, the binding signal is 21700 fluorescence intensity (a.u.).
